Counter-ions that a name gives are not always drawn. At least one structure is not confirmed: it was looked up by name or label, or the drawing left a doubt.
Key:
[1] = system: NSCLC PDX explants with autologous CD8+ T cells; assay: Co-culture of NSCLC PDX tumor explants with autologous CD8+ T cells, IFNγ ELISA; format: cell-based, human; details: PDXs from lung cancer patients non responsive to anti-PD1; IFN-g measured following anti-PD1
From the text: Two patients bearing metastatic non-small cell lung cancer (NSCLC) were included in this study. Blood samples and fresh tumor tissue samples were procured just after their biopsy with patient consent and with Helsinki approval (number 0093-19-SOR). The samples were placed in serum free DMEM (Gibco) media then processed for implantation in NSG (NOD scid gamma) mice. Tumor tissue samples were implanted subcutaneously in dorsal flanks of the mice to form patient-derived xenografts (PDXs). All animal experiments were done under Institutional Animal Care and Use Committee (IACUC) of Ben-Gurion University of the Negev (BGU’s IACUC) according to specified protocols aiming to ensure animal welfare and reduce su □ ering. The Animal ethical clearance protocol number used for this research is IL-80-12-2015. After isolation of peripheral blood mononuclear cells (PBMCs) from the peripheral blood of the patients according to standard protocol using Lymphocyte Separation Medium (LSM, MP Biomedicals, SKU 0850494-CF), CD8^+ T cells were isolated from PBMCs by employing human CD8 Microbeads (Miltenyi Biotec, 130-045-201), LS column (Miltenyi Biotec, 130-042-401) and MidiMACS Separator (130-042-302) following manufacturer’s protocol. […]

[2] = system: mc-38 mouse colon cancer cells; assay: In-vitro Viagra nucleotide analysis by LC-MS, MC38; format: cell-based; details: mc-38 cells, 100 uM Sildenafil citrate, 24 hours
[3] = system: LLC mouse lung cancer cells; assay: In-vitro Viagra nucleotide analysis by LC-MS, LLC; format: cell-based; details: 100 uM Sildenafil citrate, 48 hours

Compound: CCCc1nn(C)c2c(=O)[nH]c(-c3cc(S(=O)(=O)N4CCN(C)CC4)ccc3OCC)nc12 [Sildenafil Citrate]
- response to anti-PD1 therapy (IFN-g response) in PDX of non responsive patients [1]: increases response to anti-PD1 therapy
- cellular pyrimidine to purine ratio [2]: increases cellular pyrimidine to purine ratio
- cellular pyrimidine to purine ratio [3]: increases cellular pyrimidine to purine ratio

— patent publication US20230293530A1, “AGENTS FOR SENSITIZING SOLID TUMORS TO TREATMENT” (Yeda Research and Development Co. Ltd., priority 2020, published 2023)
